The list shows a part of the results. These are raw signals, not scaled to a control.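 First-pass screen: polymyxin B was added at a level that permeabilizes the Salmonella outer membrane while sparing the inner membrane. DMSO wells, with and without polymyxin B, defined maximum growth. Because plates differed from one another, each plate's data were ranked separately and the compounds with the lowest OD600 were carried forward as hits.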
Tested on: Salmonella enterica serovar Typhimurium SL1344
Test: bacterial growth OD600 after 18 h with compound and polymyxin B; higher = more bacterial growth (less inhibition)
Settings: 50 µM, Mueller-Hinton broth

SMILES	bacterial growth OD600 (polymyxin B 1 µg/mL)	bacterial growth OD600 (polymyxin B 0.75 µg/mL)
Cc1oc(-c2ccoc2)nc1CN1CCN(c2ccccc2)CC1C (stereo unspecified)	1.11	–
COc1ccccc1C1(CC(=O)N2CCCC(C(=O)c3ccccc3)C2)CC(=O)N(C)C1=O (stereo unspecified)	–	0.969
COc1ccc(CC2=NOC(CNC(=O)C(C)Oc3ccc(Cl)cc3C)C2)cc1 (stereo unspecified)	–	0.613
CCCn1ncc(CN2CCCC(CO)(CCc3ccccc3)C2)c1C (stereo unspecified)	0.993	–
CSc1ccccc1OCc1cc(C(=O)N(C)Cc2ccc(F)cc2)no1	0.771	–
O=C(c1ccc(NCC2CCOCC2)nc1)N1CCCCC1CCn1cccn1 (stereo unspecified)	0.948	–
CCOC(=O)C1(CCc2ccccc2)CCCN(C(=O)c2c(C)cc(C)[nH]c2=O)C1 (stereo unspecified)	–	0.877
O=C(c1cc(COc2cccc(F)c2)[nH]n1)N1CC[C@H](O)C1	0.892	–
CC1=C(C(=O)N2CCCC(N3CCN(Cc4ccc5c(c4)OCO5)CC3)C2)OCCO1 (stereo unspecified)	0.923	–
CCOC(=O)C1(Cc2ccc(Cl)cc2)CCN(Cc2ccccn2)CC1	0.778	–
COc1ccc(CN(C)C(=O)C2CCC(=O)N(CCN3CCOCC3)C2)c2cccnc12 (stereo unspecified)	1.25	–
Cc1ccccc1CC(C1CCN(C(=O)c2ccc3ccccc3n2)CC1)N(C)C(=O)Cn1cccn1 (stereo unspecified)	–	0.838
CC1(C)C(=O)NCCN1C(=O)CC(c1cccc(Cl)c1)c1ccccc1O (stereo unspecified)	1.26	–
CC(C)NC(=O)CN1CCN(C(=O)CSc2ccc3nnc(-c4cccnc4)n3n2)CC1	–	0.944
O=C(NC1CCCN(c2ncccn2)C1)c1c(F)cccc1Cl (stereo unspecified)	0.864	–
COc1cc(CN2CCC(C3(Cc4ccccc4Cl)NC(=O)N(CC4CC4)C3=O)CC2)ccc1O (stereo unspecified)	–	0.837

SMILES	bacterial growth OD600 (polymyxin B 1 µg/mL)	bacterial growth OD600 (polymyxin B 0.75 µg/mL)
COc1ccccc1CCC(=O)Nc1cnn(CC(=O)N2CCC(Sc3ccc(F)cc3)CC2)c1	–	0.02
CC(C)CC(=O)C(=O)NC1CC(=O)N(Cc2cccc(F)c2)C1 (stereo unspecified)	0.853	–
Cc1ocnc1C(=O)N1CCC2(CCCN(Cc3ccc(F)c(F)c3)C2=O)C1 (stereo unspecified)	1.13	–
COC(=O)CN(C)C(=O)Cc1c2c(n(CCc3ccccc3)c1C)CCCC2=O	0.822	–
CCN(Cc1ccccc1)C(=O)c1cc(COc2ccc(Cl)cc2OC)on1	1.22	–
C=CCC(=O)N1CCCC(CCCc2ccccc2)(C(=O)OCC)C1 (stereo unspecified)	0.011	–
COc1cccc(CCC(=O)N2CCC(CCC(=O)N(C)Cc3ccccc3)CC2)c1	0.937	–
COc1ccccc1CCN1CCC(CN(C)C(=O)CCSC)CC1	1.15	–
Cc1ccc(-c2n[nH]cc2CN2CCC(OCc3cccnc3)CC2)cc1C	0.927	–
COc1ccc(CNC2COc3c(cccc3OC)C2)c(F)c1 (stereo unspecified)	–	0.873
CCOC(=O)C1(Cc2ccccc2C)CCCN(C(=O)Nc2ccc3c(c2)OCO3)C1 (stereo unspecified)	0.97	–
CN(C(=O)Cn1cccn1)C(Cc1ccccc1)C1CCN(C(=O)c2cccc(-n3cccn3)c2)CC1 (stereo unspecified)	–	0.904
O=C(NC1CCOC1)c1cc(COc2ccc3c(c2)CCCC3)on1 (stereo unspecified)	–	0.009
CO[C@H]1[C@H](NC(=O)c2ccco2)c2ccccc2C12CCN(Cc1ccc(C)c(C)c1)CC2	–	0.731
CCc1n[nH]c(C(=O)N2CCC(n3nccc3NC(=O)C(C)(C)C)CC2)c1C	0.952	–

Full records, quoted from the list:
`COC(=O)CN(C)C(=O)Cc1c2c(n(CCc3ccccc3)c1C)CCCC2=O` as listed: bacterial growth OD600 (polymyxin B 1 µg/mL): 0.822
`COc1ccc(CNC2COc3c(cccc3OC)C2)c(F)c1` (stereo unspecified) as listed: bacterial growth OD600 (polymyxin B 0.75 µg/mL): 0.873

— the supplement of paper PMC12889115
